Experimental data: PubChem BioAssay AID2662 (National Center for Advancing Translational Sciences (NCATS), 2010)
The whole screen tested about 290,000 compounds, of which about 110 (0.038%) were called active. Inconclusive means that the source gave no clear call. Such entries were picked first, then a sample of the others. Calls follow the shape of the dose curve; as a rule, active = well fitted inhibition curve with a large enough effect in the polarisation, with a control signal flat (not every such curve was filed as active); inconclusive = small, poorly fitted or top-dose-only effect, or effect the other way, or a change in a side signal; inactive = no such curve, though single readings can be large or run the other way; the % refers to the polarisation. Potencies beside an inconclusive call are fits to weak or partial responses and may not hold up. A note “side channel” means that the fit belongs to a control or component signal, not to the main read-out.
Potency is read from the fitted curve at half-maximal effect.

Protein sequences, listed by entry. Tags and fused reporters are not part of them.
UniProt Q03164, whole entry, looked up: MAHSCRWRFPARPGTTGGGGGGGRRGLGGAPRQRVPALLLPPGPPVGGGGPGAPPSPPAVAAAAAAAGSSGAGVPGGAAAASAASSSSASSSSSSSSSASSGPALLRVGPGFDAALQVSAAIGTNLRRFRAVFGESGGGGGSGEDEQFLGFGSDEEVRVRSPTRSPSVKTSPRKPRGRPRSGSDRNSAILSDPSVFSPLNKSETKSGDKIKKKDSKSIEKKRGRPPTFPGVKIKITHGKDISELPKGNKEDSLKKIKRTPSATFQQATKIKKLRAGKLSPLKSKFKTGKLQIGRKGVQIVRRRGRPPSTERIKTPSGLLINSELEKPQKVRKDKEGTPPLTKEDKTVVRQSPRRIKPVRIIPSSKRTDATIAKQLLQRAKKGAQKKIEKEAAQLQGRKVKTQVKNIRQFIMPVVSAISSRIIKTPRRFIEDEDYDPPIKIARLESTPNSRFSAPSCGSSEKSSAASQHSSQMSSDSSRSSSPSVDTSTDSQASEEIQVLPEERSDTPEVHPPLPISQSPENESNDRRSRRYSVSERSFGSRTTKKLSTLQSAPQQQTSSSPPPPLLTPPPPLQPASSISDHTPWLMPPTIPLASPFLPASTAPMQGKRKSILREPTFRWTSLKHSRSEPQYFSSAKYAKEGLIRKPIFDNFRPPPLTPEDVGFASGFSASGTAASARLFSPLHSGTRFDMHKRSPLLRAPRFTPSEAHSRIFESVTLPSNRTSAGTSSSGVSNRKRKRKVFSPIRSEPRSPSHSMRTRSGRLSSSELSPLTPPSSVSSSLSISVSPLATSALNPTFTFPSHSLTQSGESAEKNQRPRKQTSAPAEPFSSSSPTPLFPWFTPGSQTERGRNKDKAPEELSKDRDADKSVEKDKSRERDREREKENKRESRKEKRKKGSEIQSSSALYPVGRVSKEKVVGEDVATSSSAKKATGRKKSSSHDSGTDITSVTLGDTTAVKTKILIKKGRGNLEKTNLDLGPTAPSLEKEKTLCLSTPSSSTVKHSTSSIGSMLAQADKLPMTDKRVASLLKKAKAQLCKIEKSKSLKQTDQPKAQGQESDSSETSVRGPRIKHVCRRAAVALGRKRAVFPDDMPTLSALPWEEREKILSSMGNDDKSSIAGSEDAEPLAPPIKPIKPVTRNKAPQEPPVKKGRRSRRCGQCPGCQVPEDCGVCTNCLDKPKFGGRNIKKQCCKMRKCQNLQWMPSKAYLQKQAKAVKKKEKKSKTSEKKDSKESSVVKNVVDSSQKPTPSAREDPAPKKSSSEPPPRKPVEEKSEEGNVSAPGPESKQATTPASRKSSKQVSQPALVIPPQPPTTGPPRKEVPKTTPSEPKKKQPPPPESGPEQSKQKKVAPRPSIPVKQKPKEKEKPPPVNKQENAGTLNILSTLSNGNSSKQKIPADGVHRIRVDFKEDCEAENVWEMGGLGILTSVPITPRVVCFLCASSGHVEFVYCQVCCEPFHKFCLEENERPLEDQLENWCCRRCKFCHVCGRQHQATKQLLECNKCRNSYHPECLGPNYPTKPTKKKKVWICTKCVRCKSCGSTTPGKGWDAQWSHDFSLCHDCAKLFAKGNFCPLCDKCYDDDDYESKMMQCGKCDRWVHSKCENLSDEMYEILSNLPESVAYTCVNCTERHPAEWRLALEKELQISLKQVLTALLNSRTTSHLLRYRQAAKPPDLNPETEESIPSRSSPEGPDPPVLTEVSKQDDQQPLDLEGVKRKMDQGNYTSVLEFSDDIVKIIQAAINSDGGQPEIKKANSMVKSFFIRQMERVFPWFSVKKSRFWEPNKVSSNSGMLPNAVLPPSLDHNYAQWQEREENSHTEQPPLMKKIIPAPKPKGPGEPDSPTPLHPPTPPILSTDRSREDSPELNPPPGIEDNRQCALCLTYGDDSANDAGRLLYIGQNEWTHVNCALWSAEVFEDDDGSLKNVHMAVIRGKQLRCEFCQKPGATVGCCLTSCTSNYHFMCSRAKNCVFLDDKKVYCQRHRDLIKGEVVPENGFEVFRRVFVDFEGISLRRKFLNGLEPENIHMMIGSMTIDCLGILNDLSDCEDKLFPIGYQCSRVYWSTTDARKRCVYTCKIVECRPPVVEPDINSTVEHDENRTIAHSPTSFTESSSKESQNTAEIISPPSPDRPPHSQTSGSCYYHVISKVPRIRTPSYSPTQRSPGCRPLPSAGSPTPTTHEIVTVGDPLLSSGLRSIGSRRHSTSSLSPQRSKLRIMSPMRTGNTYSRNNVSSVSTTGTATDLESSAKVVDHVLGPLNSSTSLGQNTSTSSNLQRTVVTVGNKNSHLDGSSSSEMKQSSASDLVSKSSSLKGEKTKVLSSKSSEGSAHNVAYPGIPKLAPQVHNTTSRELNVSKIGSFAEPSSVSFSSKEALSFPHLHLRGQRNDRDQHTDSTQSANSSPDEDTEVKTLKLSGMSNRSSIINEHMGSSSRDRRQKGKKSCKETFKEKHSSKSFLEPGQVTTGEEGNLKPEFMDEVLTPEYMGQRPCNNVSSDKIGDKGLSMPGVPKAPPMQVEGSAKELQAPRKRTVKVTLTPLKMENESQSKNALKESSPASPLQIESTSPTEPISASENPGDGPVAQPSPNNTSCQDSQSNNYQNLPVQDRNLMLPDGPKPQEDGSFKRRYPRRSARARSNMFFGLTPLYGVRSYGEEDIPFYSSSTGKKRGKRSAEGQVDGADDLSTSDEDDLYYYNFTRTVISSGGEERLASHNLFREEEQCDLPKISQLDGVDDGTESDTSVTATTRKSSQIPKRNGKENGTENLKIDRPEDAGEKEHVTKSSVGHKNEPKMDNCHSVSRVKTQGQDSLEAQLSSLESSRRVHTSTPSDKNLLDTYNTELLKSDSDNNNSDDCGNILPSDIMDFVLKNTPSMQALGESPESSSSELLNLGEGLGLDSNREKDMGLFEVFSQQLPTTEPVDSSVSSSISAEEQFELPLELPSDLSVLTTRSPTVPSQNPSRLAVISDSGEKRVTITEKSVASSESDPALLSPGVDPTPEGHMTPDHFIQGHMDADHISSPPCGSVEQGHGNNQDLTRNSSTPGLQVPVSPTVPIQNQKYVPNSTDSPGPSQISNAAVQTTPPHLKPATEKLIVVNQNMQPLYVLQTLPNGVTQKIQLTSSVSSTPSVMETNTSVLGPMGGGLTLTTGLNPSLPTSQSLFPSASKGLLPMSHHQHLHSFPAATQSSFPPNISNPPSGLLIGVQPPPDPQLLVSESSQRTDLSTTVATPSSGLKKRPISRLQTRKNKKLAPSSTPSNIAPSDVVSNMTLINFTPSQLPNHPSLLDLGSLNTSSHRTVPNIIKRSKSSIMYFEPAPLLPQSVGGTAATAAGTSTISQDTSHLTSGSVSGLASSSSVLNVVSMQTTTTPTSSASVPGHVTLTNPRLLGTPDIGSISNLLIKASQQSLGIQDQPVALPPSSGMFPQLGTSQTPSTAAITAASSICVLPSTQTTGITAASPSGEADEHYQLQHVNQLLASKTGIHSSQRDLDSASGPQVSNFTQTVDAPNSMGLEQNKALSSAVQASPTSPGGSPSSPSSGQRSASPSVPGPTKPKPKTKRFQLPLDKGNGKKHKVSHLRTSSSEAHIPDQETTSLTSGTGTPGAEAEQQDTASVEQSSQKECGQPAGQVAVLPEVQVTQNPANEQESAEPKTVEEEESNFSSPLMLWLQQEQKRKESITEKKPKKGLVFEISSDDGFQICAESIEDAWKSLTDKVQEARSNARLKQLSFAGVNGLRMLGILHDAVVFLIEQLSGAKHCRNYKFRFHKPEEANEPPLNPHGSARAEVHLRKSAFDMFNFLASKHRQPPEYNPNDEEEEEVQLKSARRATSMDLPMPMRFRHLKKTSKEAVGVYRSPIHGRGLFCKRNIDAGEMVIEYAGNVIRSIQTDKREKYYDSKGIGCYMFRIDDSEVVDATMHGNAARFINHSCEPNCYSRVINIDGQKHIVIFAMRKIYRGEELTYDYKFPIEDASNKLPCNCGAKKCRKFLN

Each compound was assayed against Histone-lysine N-methyltransferase 2A (Homo sapiens) (UniProt Q03164) (assay: qHTS Fluorescence Polarization Assay for Inhibitors of MLL CXXC domain - DNA interaction). Settings: MLL-CXXC / FITC-HOXA9 DNA fluorescence polarization; activity change, negative = inhibition: at 115 µM (top of the series).
Procedure, shortened: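 Steps: dispense CXXC domain solution (7 uM) → pin compounds or unlabeled HOX-A9 DNA control → 5 min ambient → add FLSN-HOX-A9 solution (50 nM) → spin → 30 min ambient → fluorescence polarization. Tris pH 7.5/NaCl/DTT/BSA buffer.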
`Nc1[nH]c(N=NC(=O)c2ccc(Cl)cc2)c2ccccc12` was tested, and the Potency was inconclusive: 15.8 µM [quencher, side channel, partial curve]. `CCCCCCc1cc2cc(C(=O)Nc3ccccc3)c(=O)oc2cc1O` was tested, and the Potency was inconclusive: 1.78 µM [fluorescent, side channel, full curve]. In the case of `Cc1ncoc1C(=O)N1CCCC(N2CCN(c3cccc(C(F)(F)F)c3)CC2)C1` (centres undefined), the Potency is reported as inconclusive: 89.1 µM [quencher, side channel, single point]. `O=C(O)c1ccc(-c2ccc(/C=c3/sc4nc5ccccc5n4c3=O)o2)cc1Cl` was tested, and the Potency was inconclusive: 70.8 µM [fluorescent, side channel, single point]. For `O=C(NNC(=S)Nc1ccc(Cl)c(Cl)c1)c1ccccn1`, the Potency was “inactive”. In the case of `O=C1Nc2ccc(F)cc2C12Nc1ccccc1-c1nnc(SCc3ccccc3)nc1O2` (centres undefined), the Potency is reported as inconclusive: 28.2 µM [inhibitor, partial curve]. In the case of `Cn1cc(/C=C/c2cc[n+](C)cc2)c2cc(F)ccc21`, the Potency is reported as inconclusive: 7.94 µM [fluorescent, side channel, partial curve]. With `O=c1ccc2c(-c3ccccc3)c3ccc(O)cc3oc-2c1` the Potency was inconclusive: 7.94 µM [fluorescent, side channel, full curve]. With `Cc1cccc2cc(/C=C3\N=C(c4ccccc4)OC3=O)c(N3CCOCC3)nc12` the Potency was inconclusive: 31.6 µM [fluorescent, side channel, partial curve]. `O=C1N/C(=C/c2ccc(N3CCOCC3)o2)C(=O)N1c1ccccc1` was tested, and the Potency was inconclusive: 31.6 µM [fluorescent, side channel, partial curve]. `CCOC(=O)c1c(C)[nH]c(N=Nc2ccc(C)cc2)c1C` was tested, and the Potency was inconclusive: 39.8 µM [quencher, side channel, single point]. For `Cn1c(=O)c2c(nc(N3CCOCC3)n2CCCNC2=NCCCCC2)n(C)c1=O`, the Potency was inconclusive: 7.94 µM [quencher, side channel, single point]. With `Cc1nc([N+](=O)[O-])cn1CC(=O)c1ccc(Cl)cc1` the Potency was inconclusive: 70.8 µM [fluorescent, side channel, single point]. With `C/C(=N\NC(=O)CNC(=O)C(c1ccccc1)c1ccccc1)c1ccc(C)cc1` the Potency was inconclusive: 50.1 µM [fluorescent, side channel, partial curve]. `Cn1c(CCCCCN)nc2ccccc21` was tested, and the Potency was “inactive”. In the case of `Cc1ccc(S(=O)(=O)Nc2cc(C(=O)NCCN(C)C)ccc2N2CCCCC2)cc1`, the Potency is reported as inconclusive: 10 µM [quencher, side channel, partial curve]. `CC(C)COc1ccc(C(=O)Nc2ccc(SC(F)F)cc2)cc1` was tested, and the Potency was inconclusive: 31.6 µM [fluorescent, side channel, partial curve]. In the case of `Nc1ccc2nc(-c3ccccc3)[nH]c2c1`, the Potency is reported as “inactive”. For `CC(=O)Nc1ccc(-c2csc(NC(=O)C3CCN(S(=O)(=O)c4cccs4)CC3)n2)cc1`, the activity change, negative = inhibition was inconclusive: -2.25% [phenotype inactive]. In the case of `COc1ccccc1CC(=O)Nc1ccc(Cl)cc1C(=O)O`, the Potency is reported as “inactive”. For `COc1cccc(-c2nc(CS(=O)(=O)CC(=O)Nc3c(C)cccc3C)c(C)o2)c1`, the Potency was “inactive”. For `Cc1ccnc(NC(=O)CCC(=O)N(CC(=O)NCc2ccccc2)Cc2ccc(F)cc2)c1`, the Potency was inconclusive: 70.8 µM [fluorescent, side channel, single point]. For `Cc1cc2cc(CNC(=S)Nc3ccc(OC(F)(F)F)cc3)ccc2n1C`, the Potency was “inactive”. `COc1ccc(Cl)cc1NC(=O)CCN1CCN(c2ccccc2C)CC1` was tested, and the Potency was inconclusive: 70.8 µM [inhibitor, single point]. `Cc1ccc(C2=NN=C(NC(=O)CSc3nncn3C)SC2)cc1` was tested, and the Potency was inconclusive: 8.91 µM [fluorescent, side channel, single point]. With `CCn1c2ccccc2c2cc(NC(=O)c3ccc(=O)oc3)ccc21` the Potency was inconclusive: 31.6 µM [fluorescent, side channel, partial curve]. `c1ccc2c(c1)[nH]c1c(NCC3CCCO3)ncnc12` (centres undefined) was tested, and the Potency was “inactive”. For `CC1CCCCC1NC(=O)C1CCCN(S(=O)(=O)c2ccc(-n3cnnn3)cc2)C1` (centres undefined), the Potency was inconclusive: 6.31 µM [fluorescent, side channel, full curve]. With `CCN1/C(=C/c2ccc3cc(C)ccc3[n+]2CC)Sc2ccccc21` the Potency was inconclusive: 20 µM [fluorescent, side channel, partial curve]. `CC(=O)c1cc(NC(=O)c2ccc(C)cc2)c(=O)oc1/C=C/N(C)C` was tested, and the Potency was inconclusive: 63.1 µM [fluorescent, side channel, single point]. For `COC(=O)CSC1=C(C#N)C(=O)NC(c2ccccc2)S1` (centres undefined), the Potency was inconclusive: 56.2 µM [inhibitor, partial curve, poor fit]. `CCCCn1ccnc1C` was tested, and the Potency was inconclusive: 31.6 µM [fluorescent, side channel, single point]. `Cc1ccc(-c2nnn(CC(=O)NCc3ccccc3)n2)c(-n2cnnn2)c1` was tested, and the Potency was inconclusive: 1.41 µM [quencher, side channel, partial curve, poor fit]. `Cc1ccc(NC(=O)CN2C(=O)NC(C)(c3ccccc3)C2=O)c(C)c1` (centres undefined) was tested, and the Potency was inconclusive: 70.8 µM [quencher, side channel, single point]. For `Cc1nc(-c2ccc(Cl)cc2)oc1COC(C)(C)C(=O)O`, the Potency was “inactive”. With `COc1ccccc1OCc1nnc(SCC(=O)NCc2ccco2)n1Cc1ccco1` the Potency was “inactive”. `Cc1cc(/C=N/n2c(COc3ccccc3)nc3ccccc3c2=O)c(O)c([N+](=O)[O-])c1` was tested, and the Potency was “inactive”. `Cc1ccccc1NC(=O)COC(=O)c1ccc(CSc2ccc(Cl)cc2)cc1` was tested, and the Potency was inconclusive: 17.8 µM [fluorescent, side channel, partial curve]. In the case of `COc1ccc(-c2cc(N3C(=O)Nc4ccccc4N3O)n[nH]2)cc1OC`, the Potency is reported as inconclusive: 31.6 µM [fluorescent, side channel, single point].
